Reference: PubChem BioAssay AID224 (DTP/NCI, 2004)
The list is a part of this screen's results and no random one: it gathers tests that were run many times, whatever their T/C, doses with no T/C, and many T/C values between a quarter and a half above the control. Further doses and runs are listed elsewhere. T/C gives the treated animals as a percentage of the vehicle group. Some doses have a count of surviving animals in place of a T/C: the source files T/C as zero there, which appears to mark a toxic dose or a test without result, not a measured value. Some doses without a T/C left all or most animals alive at the check, yet need not have been tolerated: the source hardly ever lists a survival T/C far under the control, and the zero likely stands for such cases as well. Counts of survivors are from the toxicity check (mostly the fifth day) where no day follows; animals may have died later. Schedule codes are those of the source, taken here to give the interval after Q, in days (D) or hours (H), and the number of doses after X. Some schedule codes hold Z or #, which are not explained here. Some structures stand for samples that the source files as different forms (salt, stereo form or complex); doses refer to the form tested. Some entries hold several experiments; the results are listed from low to high. For survival time, the PubChem record calls one and a half times the control and up active, and a quarter to a half above the control has no call in these data; cut-offs in other NCI protocols can differ. Some T/C values are followed by the survivors on the day toxicity was checked, most often the fifth; without a count, all were alive then. Starred links: 1 amine or outer side, 2 acyl side, 3 side chain; linkers in the order of their positions; H or OH if unused. Positions of bridges follow the written chain, without caps; N, C: chain ends. Non-standard residues stand in square brackets, D forms with d. Residues, ends and D or L forms follow the SMILES beside them. Chains are numbered I, II in the order given. Actinocin(9to1) = Cc1c2oc3c(C)ccc(C(=O)[*:1])c3nc-2c(C(=O)[*:2])c(N)c1=O; aThr = C[C@H](O)[C@H](N)C(=O)O; NMeV = CN[C@H](C(=O)O)C(C)C; Sar = CNCC(=O)O

Tested on: P335 leukemia ip, BDF1 mice, survival T/C %
Experiment: NCI In Vivo Anticancer Drug Screen. Data for tumor model P335 Leukemia (intraperitoneal) in B6D2F1 (BDF1) mice
Conditions: T/C endpoint: mean survival time, higher T/C = longer survival
Experimental: The antitumor activity of compounds was measured in mice bearing transplantable tumors. Survival or tumor size were measured and the results are expressed as the measurement made in the treated group (T) divided by the measurement made in the vehicle treated control group (C). The tumor model used in this assay is P335 Leukemia (intraperitoneal) in B6D2F1 (BDF1) mice

[1] = dose: 1.25 mg/kg/injection, schedule: Q01DX Z (ip), vehicle: carboxymethylcellulose (CMC)
[2] = dose: 2.5 mg/kg/injection, schedule: Q01DX Z (ip), vehicle: carboxymethylcellulose (CMC)
[3] = dose: 10.0 mg/kg/injection, schedule: Q01DX Z (ip), vehicle: carboxymethylcellulose (CMC)
[4] = dose: 25.0 mg/kg/injection, schedule: Q01DX Z (ip), vehicle: carboxymethylcellulose (CMC)
[5] = dose: 50.0 mg/kg/injection, schedule: Q01DX Z (ip), vehicle: carboxymethylcellulose (CMC)

## Nc1nc(=S)c2[nH]cnc2[nH]1
dose: 8.0 mg/kg/injection, schedule: Q01DX Z (ip), vehicle: carboxymethylcellulose (CMC)
  survivor count: 6 of 6
dose: 16.0 mg/kg/injection, schedule: Q01DX Z (ip), vehicle: carboxymethylcellulose (CMC)
  survivor count: 6 of 6
dose: 32.0 mg/kg/injection, schedule: Q01DX Z (ip), vehicle: carboxymethylcellulose (CMC)
  survivor count: 2 of 6

## CC(CCC(C)OS(C)(=O)=O)OS(C)(=O)=O (stereo unspecified)
dose: 40.0 mg/kg/injection, schedule: Q01DX Z (ip), vehicle: carboxymethylcellulose (CMC)
  survivor count: 6 of 6

## CCN(CC)c1ccc2cc3ccc(=[N+](CC)CC)cc-3oc2c1
dose: 0.16 mg/kg/injection, schedule: Q01DX Z (ip), vehicle: carboxymethylcellulose (CMC)
  survivor count: 6 of 6
[1]
  survivor count: 5 of 6
[2]
  survivor count: 6 of 6
dose: 5.0 mg/kg/injection, schedule: Q01DX Z (ip), vehicle: carboxymethylcellulose (CMC)
  survivor count: 6 of 6
[3]
  survivor count: 1 of 6

## Nc1ncnc2[nH]ncc12
[4]
  survivor count: 5 of 6
[5]
  survivor count: 4 of 6

## N=[N+]=CC(=O)OCC(N)C(=O)O (stereo unspecified)
dose: 1.56 mg/kg/injection, schedule: Q01DX Z (ip), vehicle: saline
  T/C: 134 % of control
dose: 3.12 mg/kg/injection, schedule: Q01DX Z (ip), vehicle: saline
  T/C: 131 % of control
dose: 6.25 mg/kg/injection, schedule: Q01DX Z (ip), vehicle: saline
  T/C: 134 % of control
dose: 9.37 mg/kg/injection, schedule: Q01DX Z (ip), vehicle: saline
  T/C: 130 % of control
dose: 12.5 mg/kg/injection, schedule: Q01DX Z (ip), vehicle: saline
  T/C: 145 % of control
dose: 100.0 mg/kg/injection, schedule: Q01DX Z (ip), vehicle: saline
  survivor count: 0 of 6

## OCC1OC(n2cnc3c(=S)nc[nH]c32)C(O)C1O (stereo unspecified)
dose: 250.0 mg/kg/injection, schedule: Q01DX Z (ip), vehicle: carboxymethylcellulose (CMC)
  survivor count: 6 of 6
dose: 500.0 mg/kg/injection, schedule: Q01DX Z (ip), vehicle: carboxymethylcellulose (CMC)
  survivor count: 6 of 6

## Cc1c2oc3c(C)ccc(C(=O)N[C@@H]4C(=O)N[C@H](C(C)C)C(=O)N5CCC[C@H]5C(=O)N(C)CC(=O)N(C)[C@@H](C(C)C)C(=O)O[C@H]4C)c3nc-2c(C(=O)N[C@@H]2C(=O)N[C@H](C(C)C)C(=O)N3CCC[C@H]3C(=O)N(C)CC(=O)N(C)[C@@H](C(C)C)C(=O)O[C@H]2C)c(N)c1=O (I: [aThr][dV]P[Sar][NMeV] / II: [aThr][dV]P[Sar][NMeV]; ester I:1-I:C, II:1-II:C; linker I:N-II:N via Actinocin(9to1))
dose: 12.8 micrograms/kg/injection, schedule: Q01DX Z (ip), vehicle: saline
  T/C: 140 % of control

## COC12C(COC(N)=O)C3=C(C(=O)C(C)=C(N)C3=O)N1CC1C2N1C (stereo unspecified)
[1]
  T/C: 137 % of control
[2]
  T/C: 139 and 147 % of control
[3]
  T/C: 127 % of control
dose: 20.0 mg/kg/injection, schedule: Q01DX Z (ip), vehicle: carboxymethylcellulose (CMC)
  survivor count: 6 of 6

## CC[C@H](c1ccc(O)cc1)[C@@H](CC)c1ccc(O)cc1
dose: 1.0 mg/kg/injection, schedule: Q01DX Z (sc), vehicle: steroid suspending solution
  T/C: 133 % of control
dose: 4.0 mg/kg/injection, schedule: Q01DX Z (sc), vehicle: steroid suspending solution
  T/C: 127 % of control
dose: 8.0 mg/kg/injection, schedule: Q01DX Z (sc), vehicle: steroid suspending solution
  T/C: 140 % of control

## CC[C@@H](c1ccc(O)cc1)[C@@H](CC)c1ccc(O)cc1
dose: 62.5 mg/kg/injection, schedule: Q01DX Z (sc), vehicle: steroid suspending solution
  survivor count: 6 of 6
dose: 125.0 mg/kg/injection, schedule: Q01DX Z (sc), vehicle: steroid suspending solution
  T/C: 128 % of control
dose: 250.0 mg/kg/injection, schedule: Q01DX Z (sc), vehicle: steroid suspending solution
  T/C: 128 % of control

## COS(C)(=O)=O
dose: 200.0 mg/kg/injection, schedule: Q01DX Z (ip), vehicle: water
  survivor count: 0 of 6

## O[C@H](CN1CC1)[C@@H](O)CN1CC1
dose: 31.0 micrograms/kg/injection, schedule: Q01DX Z (ip), vehicle: carboxymethylcellulose (CMC)
  survivor count: 6 of 6
dose: 63.0 micrograms/kg/injection, schedule: Q01DX Z (ip), vehicle: carboxymethylcellulose (CMC)
  survivor count: 6 of 6
dose: 125.0 micrograms/kg/injection, schedule: Q01DX Z (ip), vehicle: carboxymethylcellulose (CMC)
  survivor count: 6 of 6
dose: 250.0 micrograms/kg/injection, schedule: Q01DX Z (ip), vehicle: carboxymethylcellulose (CMC)
  survivor count: 6 of 6
dose: 500.0 micrograms/kg/injection, schedule: Q01DX Z (ip), vehicle: carboxymethylcellulose (CMC)
  survivor count: 1 of 6

## CN(C)c1ccc(/C=C/c2ccnc3ccccc23)cc1
dose: 6.2 mg/kg/injection, schedule: Q01DX Z (ip), vehicle: water
  survivor count: 6 of 6
dose: 12.5 mg/kg/injection, schedule: Q01DX Z (ip), vehicle: carboxymethylcellulose (CMC)
  survivor count: 6 of 6
dose: 12.5 mg/kg/injection, schedule: Q01DX Z (ip), vehicle: water
  survivor count: 6 of 6
[4]
  survivor count: 6 of 6
dose: 25.0 mg/kg/injection, schedule: Q01DX Z (ip), vehicle: water
  survivor count: 6 of 6
[5]
  survivor count: 6 of 6
dose: 100.0 mg/kg/injection, schedule: Q01DX Z (ip), vehicle: carboxymethylcellulose (CMC)
  survivor count: 3 of 6 and 6 of 6
dose: 200.0 mg/kg/injection, schedule: Q01DX Z (ip), vehicle: carboxymethylcellulose (CMC)
  survivor count: 1 of 6
dose: 400.0 mg/kg/injection, schedule: Q01DX Z (ip), vehicle: carboxymethylcellulose (CMC)
  survivor count: 0 of 6

## O=NN(CCCl)C(=O)NCCCl
dose: 8.0 mg/kg/injection, schedule: Q01DX Z (ip), vehicle: saline
  survivor count: 6 of 6
dose: 32.0 mg/kg/injection, schedule: Q01DX Z (ip), vehicle: saline
  survivor count: 6 of 6
dose: 64.0 mg/kg/injection, schedule: Q01DX Z (ip), vehicle: saline
  survivor count: 6 of 6

## C[n+]1c2ccccc2nc2c(N)cc(N)cc21
[4]
  survivor count: 1 of 6
[5]
  survivor count: 0 of 6

## S=P(N1CCOCC1)(N1CC1)N1CC1
dose: 6.25 mg/kg/injection, schedule: Q01DX Z (ip), vehicle: carboxymethylcellulose (CMC)
  survivor count: 6 of 6
[5]
  survivor count: 6 of 6

## Nc1nc2n[nH]nc2c(=O)[nH]1
dose: 25.0 mg/kg/injection, schedule: Q01DX Z (ip), vehicle: other
  T/C: 142 % of control
dose: 50.0 mg/kg/injection, schedule: Q01DX Z (ip), vehicle: other
  T/C: 142 % of control

## CN(Cc1cnc2nc(N)nc(N)c2n1)c1ccc(C(=O)N[C@@H](CCC(=O)O)C(=O)O)cc1
dose: 0.31 mg/kg/injection, schedule: Q01DX Z (ip), vehicle: other
  T/C: 125 % of control
dose: 0.62 mg/kg/injection, schedule: Q01DX Z (ip), vehicle: other
  T/C: 138, 140, 149, 161, 214 % of control
dose: 1.25 mg/kg/injection, schedule: Q01DX Z (ip), vehicle: other
  T/C: 142, 152, 162, 171, 205 % of control
dose: 1.5 mg/kg/injection, schedule: Q01DX Z (ip), vehicle: other
  T/C: 131 % of control [5 of 6 alive]
dose: 2.5 mg/kg/injection, schedule: Q01DX Z (ip), vehicle: other
  T/C: 120 [5 of 6 alive], 140, 159, 163, 168 % of control
dose: 5.0 mg/kg/injection, schedule: Q01DX Z (ip), vehicle: other
  T/C: 91, 117, 118 [5 of 6 alive], 119 % of control

## C[C@H]1C(=O)O[C@@H]2CCN3CC=C(COC(=O)[C@](C)(O)[C@@]1(C)O)[C@H]23
dose: 30.0 mg/kg/injection, schedule: Q01DX Z (ip), vehicle: carboxymethylcellulose (CMC)
  survivor count: 5 of 6
dose: 60.0 mg/kg/injection, schedule: Q01DX Z (ip), vehicle: carboxymethylcellulose (CMC)
  survivor count: 6 of 6
dose: 120.0 mg/kg/injection, schedule: Q01DX Z (ip), vehicle: carboxymethylcellulose (CMC)
  survivor count: 6 of 6

## N[C@@H](Cc1ccc(N(CCCl)CCCl)cc1)C(=O)O
dose: 0.62 mg/kg/injection, schedule: Q01DX Z (ip), vehicle: saline
  T/C: 139 % of control
dose: 1.25 mg/kg/injection, schedule: Q01DX Z (ip), vehicle: saline
  T/C: 148 % of control
dose: 10.0 mg/kg/injection, schedule: Q01DX Z (ip), vehicle: saline
  survivor count: 6 of 6
